The record followed here is the supplement of paper PMC10338343.

± gives the standard deviation. Only a part is listed here, and it is no random draw. Many entries were measured with a wide error.
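Note: 1 nM active piRISC with 0.1 nM target library at 33 °C single turnover.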

The test relates to MIWI (PIWIL1) piRISC loaded with Kctd7 piRNA (30 nt). Nature of the test: pre-steady-state target cleavage rate (min^-1); MIWI and MILI are mouse PIWI proteins and EfPiwi is from a freshwater sponge; tags in brackets are library labels; higher = faster piRNA-guided slicing of the target. Particulars: guide: Kctd7 piRNA 5'p-UGUUAAUCUCUCAGAGAAGGUGACAGUGAU; auxiliary factor: 500 nM mouse GTSF1. The essentials: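 For Cleave-'n-Seq, a transcribed, DNA-blocked target RNA library […] met 1 nM active affinity-purified piRISC with one synthetic guide at 33 °C for 0–8 or 0–960 min in HEPES–potassium acetate buffer, with or without 500 nM GTSF1 partner protein. Uncleaved targets were sequenced and normalised to depth and weakly complementary targets, with three trials pooled and k3 capped at 0.0001 min^-1. A burst-and-steady-state fit supplied the pre-steady-state cleavage rate.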
UAGUGACAGUGCUUCUCUGAGAGAUUAUGA: the “pre-steady-state target cleavage rate” value was 0.000187 ± 0.013.

In the case of UAGUGACAGUGCUUCUCUGAGAGAAAAACA, the “pre-steady-state target cleavage rate” value amounted to 0.00125 ± 0.0066.

UACACUGUCACCUUCUCUCUCAGAUUAAGA: the “pre-steady-state target cleavage rate” value amounted to 0.00214 ± 0.0081.

Consider UAGUGACAGUGGAACUCUGAGUGAUAAACA, for which the “pre-steady-state target cleavage rate” value was 0.000608 ± 0.022.

For UUCACUGUCACCUUCUCUGAGUCUUAUUGA, the “pre-steady-state target cleavage rate” value was determined as 0.0021 ± 0.0048.

Consider UAGUGACUCACCUUCUCUCAGAGAUAUUGA, for which the “pre-steady-state target cleavage rate” value came out at 0.000828 ± 0.013.

As to UAGUGUGAGUCCUUCUCUGAGAGAUAUUGA, the “pre-steady-state target cleavage rate” value was 0.00158 ± 0.0051.

With UAGUGACAGUGCUACUCUGAGAGAUUAACA, the “pre-steady-state target cleavage rate” value turned out to be 0.000242 ± 0.0094.

Turning to UAGUGACACACCUUCUUGAGAGAUUAACA, the “pre-steady-state target cleavage rate” value worked out at 0.00261 ± 0.006.

Turning to UAGUCUGUGUCCUUCUCUGAGAGAUAUUGA, the “pre-steady-state target cleavage rate” value worked out at 0.00175 ± 0.004.

In the case of UACACUGUCACCUUCACUGUGAGAUUAACA, the “pre-steady-state target cleavage rate” value came to 0.116 ± 0.015.

In the case of UAGUGACAGACCUUCUCAGAGAGAUUUUGA, the “pre-steady-state target cleavage rate” value amounted to 0.000912 ± 0.012.

With UAGUGACACACCUUCUCUGAGUAGAUUAACA, the “pre-steady-state target cleavage rate” value stood at 0.0017 ± 0.006.

UAGUGACAGUGCUUCUCUGAGAGAUUUAACA: the “pre-steady-state target cleavage rate” value was 0.00371 ± 0.0041.

As to UAGACUGUCACCUUCUCUGAGUCUUUAACA, the “pre-steady-state target cleavage rate” value amounted to 0.00131 ± 0.0054.

AUCACUGUCACCGUUCUCUGAGAGAUUAACA: the “pre-steady-state target cleavage rate” value was 0.774 ± 0.052.

On to UAGUGAGUCACCUUGAGUGAGAGAUUUUGA, for which the “pre-steady-state target cleavage rate” value worked out at 0.000849 ± 0.012.

Regarding UAGUGACAGACGAUCUCUGAGAGAUUAACA, the “pre-steady-state target cleavage rate” value worked out at 0.000754 ± 0.0077.

Consider UAGUGACAGUGCUUCUCUGUCAGAUUAACA, for which the “pre-steady-state target cleavage rate” value came to 0.000325 ± 0.014.

In the case of UAGUGUCAGACCUUCUCUGAGAGAUAUUGA, the “pre-steady-state target cleavage rate” value came out at 0.000416 ± 0.018.

As to UAGUGAGUCAGGAUCUCUGAGAGAUUUUGA, the “pre-steady-state target cleavage rate” value came out at 0.000558 ± 0.013.

In the case of UAGUCUGUCACCUUCUCUGAGACUUUAUGA, the “pre-steady-state target cleavage rate” value amounted to 0.00143 ± 0.0048.

As to UAGUGACAGUGCUUCUCUGAGCGAUUAACA, the “pre-steady-state target cleavage rate” value amounted to 0.00288 ± 0.0031.

As for “AUCACUGUCACCUUCUCUGAGAGAUUAACC [g2:g30:cont:t1C]”, the “pre-steady-state target cleavage rate” value came to 0.387 ± 0.032.

Regarding UAGUGACACACCUUCUCUGAGAGUAAAUGA, the “pre-steady-state target cleavage rate” value came to 0.00181 ± 0.0062.

For the sequence UUCACUGUCACCUUCUCACUGAGAUAUUGA, the “pre-steady-state target cleavage rate” value was 0.00236 ± 0.0051.

Consider UAGACUGUCACCUUCUCUGAGACAUUUACA, for which the “pre-steady-state target cleavage rate” value was found to be 0.00137 ± 0.0045.

For the sequence UAGUGACAGACCUUCUCAGAGAGAAUAACA, the “pre-steady-state target cleavage rate” value was determined as 0.00157 ± 0.0071.

Turning to UAGUGACAGUGGAAGAGACACUGAUUAACA, the “pre-steady-state target cleavage rate” value came to 0.000425 ± 0.014.

Turning to UAGUGACAGACCAUCUCAGAGAGAUUAACA, the “pre-steady-state target cleavage rate” value amounted to 0.00164 ± 0.0065.

UAGUGACAGUCCUUCUCUGAGAGAUAUAGA: the “pre-steady-state target cleavage rate” value is 0.000608 ± 0.008.

Consider UUCACUGCUCACCUUCUCUGAGAGAUUAACA, for which the “pre-steady-state target cleavage rate” value was 0.669 ± 0.044.

Turning to UAGUGACAGUGAUUCUCUGAGAGAUUAACA, the “pre-steady-state target cleavage rate” value is 0.00102 ± 0.0047.

As to UAGUGACAGUGCUUCUCUGAGAGUAUAACA, the “pre-steady-state target cleavage rate” value is 0.000117 ± 0.024.

UAGUGACAGUGCUUCUCGGAGAGAUUAACA: the “pre-steady-state target cleavage rate” value stood at 0.000763 ± 0.008.

For the sequence UAGACUGUCACCUUCUCUGACAGAAUAACA, the “pre-steady-state target cleavage rate” value is 0.00201 ± 0.0041.

For UAGUGACACACCUAGUCUGAGAGAUUAAGA, the “pre-steady-state target cleavage rate” value worked out at 0.000202 ± 0.033.

As to UAGUGAGUCACCUUCUCUGACUCAUAUUGA, the “pre-steady-state target cleavage rate” value stood at 0.00105 ± 0.0086.

For UACACUGUCACGAACUCUGAGAGAUUAAGA, the “pre-steady-state target cleavage rate” value was 0.00157 ± 0.0067.

Turning to UAGUGACAGUGCUUCUCUAGAGAUUAACA, the “pre-steady-state target cleavage rate” value worked out at 0.000922 ± 0.0059.

Consider UAGUGACACACCUUGAGUGAGAGAUUUUGA, for which the “pre-steady-state target cleavage rate” value came out at 0.00122 ± 0.0096.

On to UAGUGAGUCACCAAGUCUGAGAGAUUUUGA, for which the “pre-steady-state target cleavage rate” value is 0.000323 ± 0.027.

UAGUGACAGUCCUUCUCUGAGAGAUAAUGA: the “pre-steady-state target cleavage rate” value came out at 0.000426 ± 0.011.

Turning to UAGUGACAGUCCUUCUCUGAGUGUUUAACA, the “pre-steady-state target cleavage rate” value turned out to be 0.000488 ± 0.0085.

For UACACUGUCACCUUCUCACUGAGAUAUUGA, the “pre-steady-state target cleavage rate” value amounted to 0.00182 ± 0.0084.

Consider UAGACUGUCACCUUCUGAGAGAGAUUUUGA, for which the “pre-steady-state target cleavage rate” value turned out to be 0.000938 ± 0.0072.

In the case of UAGUGACAGUGCUUCUGUGAGAGAUAAACA, the “pre-steady-state target cleavage rate” value turned out to be 0.00266 ± 0.0034.

For the sequence UAGUCUGUCAGGUUCUCUGAGAGAUUUUGA, the “pre-steady-state target cleavage rate” value came out at 0.000502 ± 0.0095.

As for UAGUGACACACCUUCUCUGUGAGAUAUUGA, the “pre-steady-state target cleavage rate” value is 0.0018 ± 0.0067.

For “UAGUGACUCACCUUCUCACUCUCUAAUUGA [g14:g23:cont:t1A]”, the “pre-steady-state target cleavage rate” value amounted to 0.000513 ± 0.011.

On to UAGUGACUCACGAACUCUGAGAGAUUAACA, for which the “pre-steady-state target cleavage rate” value amounted to 0.000159 ± 0.024.

Consider AUCACUGUCACCUUCACUGAGAGAUUUUGA, for which the “pre-steady-state target cleavage rate” value worked out at 0.339 ± 0.082.

As to UAGUGACAGUCGUUCACUGAGAGAUUAACA, the “pre-steady-state target cleavage rate” value came out at 0.000293 ± 0.033.

For UAGUCUGUCUGCUUCUCUGAGAGAUUUUGA, the “pre-steady-state target cleavage rate” value turned out to be 0.000182 ± 0.032.

As to UAGUGACAGACGUUCUCUGAGAGAAUAACA, the “pre-steady-state target cleavage rate” value stood at 0.00143 ± 0.0057.

With AUCUCUGUCACCUUCUCUGAGAGAUUAACA, the “pre-steady-state target cleavage rate” value was 0.713 ± 0.032.

As to UUCACUGUCACCUUCUCUGACUCAUAUUGA, the “pre-steady-state target cleavage rate” value is 0.0012 ± 0.0051.

For UAGUGACUCACCUUCAGUGAGAGAUAUUGA, the “pre-steady-state target cleavage rate” value came out at 0.000713 ± 0.013.

Consider UAGUGACAGACGUUCUCUGAGACAUUAACA, for which the “pre-steady-state target cleavage rate” value is 0.000811 ± 0.0077.

In the case of UAGUGACAGUGCUUCUCAGAGAGAUUAACA, the “pre-steady-state target cleavage rate” value turned out to be 0.00164 ± 0.0049.

Take UAGUGACUCUCCUUCUCUGAGAGAUAUUGA: the “pre-steady-state target cleavage rate” value was determined as 0.00117 ± 0.0048.

With UAGUGAGUCACCUUCUCUGACUCAUUUUGA, the “pre-steady-state target cleavage rate” value amounted to 0.00135 ± 0.0088.

In the case of UAGUGACACACCUUCUGCUGAGAGAUUAACA, the “pre-steady-state target cleavage rate” value is 0.00071 ± 0.021.

On to UAGACAGUCACCUUCUCUGAGAGAUUAACA, for which the “pre-steady-state target cleavage rate” value worked out at 0.656 ± 0.033.

With UAGUGACAGUGCUUCUCUGUGAGAUUAUCA, the “pre-steady-state target cleavage rate” value came to 0.00204 ± 0.0033.

In the case of UAGUGACAGUGGAAGACUGAGAGAUUCAACA, the “pre-steady-state target cleavage rate” value was 0.000173 ± 0.022.

As for AUCACUAGUCACCUUCUCUGAGAGAUUAACA, the “pre-steady-state target cleavage rate” value was 0.724 ± 0.04.

In the case of UAGUGACAGUGCUUCUUGAGAGAUUAACA, the “pre-steady-state target cleavage rate” value stood at 0.000752 ± 0.012.

For UAGUGACAGUGGAACUCUGACUGAUUAACA, the “pre-steady-state target cleavage rate” value came to 0.00011 ± 0.029.

Consider UAGUGACAGACCUUCUCUCAGAGAAUAACA, for which the “pre-steady-state target cleavage rate” value worked out at 0.00127 ± 0.0087.

Consider UAGUGACAGACCUUCAGAGAGAGAUUAAGA, for which the “pre-steady-state target cleavage rate” value was 0.000258 ± 0.052.

For the sequence UACAGUGUCACCUUCUCUGAGAGAUUAACA, the “pre-steady-state target cleavage rate” value amounted to 0.663 ± 0.034.

With UAGUGACAGUGCUUCACUGAGAGAUAAACA, the “pre-steady-state target cleavage rate” value was 0.000838 ± 0.0091.

Regarding UAGUGUGUCACCUUCUCUGAGAGAUUAUCA, the “pre-steady-state target cleavage rate” value amounted to 0.219 ± 0.026.

Regarding UAGUGACAGACCUUCUCUGAGAGUUUAUCA, the “pre-steady-state target cleavage rate” value is 0.00293 ± 0.0048.

As for UAGUGACAGUGGAAGUCUGAGUCAUUAACA, the “pre-steady-state target cleavage rate” value is 0.000187 ± 0.029.

Turning to UAGUGACAGUGGAACUCUGAGACUUUAACA, the “pre-steady-state target cleavage rate” value worked out at 0.00154 ± 0.011.

Consider “AUCACUGUCACCUUCUGACUCUCUAAUUGA [g15:g30:cont:t1A]”, for which the “pre-steady-state target cleavage rate” value came out at 0.000505 ± 0.0078.

In the case of UAGACUGUCACCUUCUCUGAGACUAAUUGA, the “pre-steady-state target cleavage rate” value turned out to be 0.000117 ± 0.017.

With UAGACAGUCACCUUCUCUGAGAGAUUAUCA, the “pre-steady-state target cleavage rate” value came out at 0.252 ± 0.029.

As for UAGUGACAGUCCUUCUCUGGAGAGAUUAACA, the “pre-steady-state target cleavage rate” value was 0.000122 ± 0.017.

Turning to UAGUGACAGUGGAUCUCUGAGAAAUUAACA, the “pre-steady-state target cleavage rate” value was less than 0.0001.

On to UAGUGACAGUGGAACUCUGAAAGAUUAACA, for which the “pre-steady-state target cleavage rate” value was determined as 0.000869 ± 0.015.

Turning to UAGUGACUCACCAACUCUGAGAGAUUAUGA, the “pre-steady-state target cleavage rate” value was determined as 0.000235 ± 0.018.

In the case of UAGUGACAGUCCAUCUCUGACAGAUUAACA, the “pre-steady-state target cleavage rate” value is 0.000233 ± 0.027.

Turning to UAGUGACACACCUUGUCUGAGAGAUUUUGA, the “pre-steady-state target cleavage rate” value came to 0.00126 ± 0.0057.

Consider UACACUGUCACCUAGACUGAGAGAUUAAGA, for which the “pre-steady-state target cleavage rate” value amounted to 0.00191 ± 0.0086.

On to UAGUGACACACCUUCACUGAGAGAUAUUGA, for which the “pre-steady-state target cleavage rate” value worked out at 0.00218 ± 0.007.

In the case of UAGUGACAGUGCUUCACUGAGACAUUAACA, the “pre-steady-state target cleavage rate” value was 0.000533 ± 0.012.

UAGUCUGUCACCUUCUCUGAGACAUAUUGA: the “pre-steady-state target cleavage rate” value stood at 0.00133 ± 0.0059.

For the sequence UAGUGACUCACCUUCUCUGACUCAUUAUGA, the “pre-steady-state target cleavage rate” value stood at 0.000226 ± 0.017.
